Assay results reported in article PMC10258333.
No constants are given. Whether binding was seen depends on the method and setting. Binding seen in cells or lysates may run through a third protein. Some binding calls cover weakened binding; strength is not graded here. Where a sequence is shown, tags or fusion partners need not be part of it.

T1: HD2B fused to nYFP (Arabidopsis thaliana) (UniProt Q56WH4)
T1 sequence: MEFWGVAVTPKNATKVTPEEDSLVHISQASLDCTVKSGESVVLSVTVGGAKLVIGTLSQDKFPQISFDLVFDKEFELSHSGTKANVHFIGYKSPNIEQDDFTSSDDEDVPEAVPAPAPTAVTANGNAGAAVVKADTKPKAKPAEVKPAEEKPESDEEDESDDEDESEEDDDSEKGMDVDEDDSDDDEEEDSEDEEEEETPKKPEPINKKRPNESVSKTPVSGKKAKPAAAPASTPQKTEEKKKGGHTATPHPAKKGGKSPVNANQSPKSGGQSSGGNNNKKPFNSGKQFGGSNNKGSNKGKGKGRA

T2: HD2B-GFP (Arabidopsis thaliana) (UniProt Q56WH4)
T2 sequence: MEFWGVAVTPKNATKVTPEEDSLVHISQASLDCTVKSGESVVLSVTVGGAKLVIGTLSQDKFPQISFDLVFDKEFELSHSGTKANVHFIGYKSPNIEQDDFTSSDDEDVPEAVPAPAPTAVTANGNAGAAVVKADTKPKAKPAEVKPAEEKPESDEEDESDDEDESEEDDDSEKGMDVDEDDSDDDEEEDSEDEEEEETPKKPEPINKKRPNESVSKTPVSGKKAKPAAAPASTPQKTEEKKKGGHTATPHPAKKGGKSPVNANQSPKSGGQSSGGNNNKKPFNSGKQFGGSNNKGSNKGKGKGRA


Legend:
[1] = target: T1, HD2B fused to nYFP (Arabidopsis thaliana); assay: split reporter; BiFC with nYFP and cYFP fusions from pBiFCt-2in1-NN in Arabidopsis protoplasts; YFP signal by confocal microscopy after 16 h to 24 h in the dark
[2] = target: T2, HD2B-GFP (Arabidopsis thaliana); assay: co-IP; HSI2-myc or HSL1-myc transiently expressed in protoplasts of HD2A-GFP or HD2B-GFP lines; total protein extract (50 mM Tris-HCl pH 8, 150 mM NaCl, 0.1% Nonidet P-40) on GFP-Trap agarose beads at 4°C overnight; immunoblot with anti-Myc antibody

Binder	binding [1]	binding [2]
HSI2-LIKE1 (HSL1) fused to cYFP (protein, UniProt Q5CCK4 1-780) MESIKVCMNALCGAASTSGEWKKGWPMRSGDLASLCDKCGCAYEQSIFCEVFHAKESGWRECNSCDKRLHCGCIASRFMMELLENGGVTCISCAKKSGLISMNVSHESNGKDFPSFASAEHVGSVLERTNLKHLLHFQRIDPTHSSLQMKQEESLLPSSLDALRHKTERKELSAQPNLSISLGPTLMTSPFHDAAVDDRSKTNSIFQLAPRSRQLLPKPANSAPIAAGMEPSGSLVSQIHVARPPPEGRGKTQLLPRYWPRITDQELLQLSGQYPHLSNSKIIPLFEKVLSASDAGRIGRLVLPKACAEAYFPPISLPEGLPLKIQDIKGKEWVFQFRFWPNNNSRMYVLEGVTPCIQSMQLQAGDTVTFSRTEPEGKLVMGYRKATNSTATQMFKGSSEPNLNMFSNSLNPGCGDINWSKLEKSEDMAKDNLFLQSSLTSARKRVRNIGTKSKRLLIDSVDVLELKITWEEAQELLRPPQSTKPSIFTLENQDFEEYDEPPVFGKRTLFVSRQTGEQEQWVQCDACGKWRQLPVDILLPPKWSCSDNLLDPGRSSCSAPDELSPREQDTLVRQSKEFKRRRLASSNEKLNQSQDASALNSLGNAGITTTGEQGEITVAATTKHPRHRAGCSCIVCSQPPSGKGKHKPSCTCTVCEAVKRRFRTLMLRKRNKGEAGQASQQAQSQSECRDETEVESIPAVELAAGENIDLNSDPGASRVSMMRLLQAAAFPLEAYLKQKAISNTAGEQQSSDMVSTEHGSSSAAQETEKDTTNGAHDPVN	binds	–
HIGH-LEVEL EXPRESSION OF SUGAR INDUCIBLE2 (HSI2) fused to cYFP (protein, UniProt Q8W4L5 1-790) MFEVKMGSKMCMNASCGTTSTVEWKKGWPLRSGLLADLCYRCGSAYESSLFCEQFHKDQSGWRECYLCSKRLHCGCIASKVTIELMDYGGVGCSTCACCHQLNLNTRGENPGVFSRLPMKTLADRQHVNGESGGRNEGDLFSQPLVMGGDKREEFMPHRGFGKLMSPESTTTGHRLDAAGEMHESSPLQPSLNMGLAVNPFSPSFATEAVEGMKHISPSQSNMVHCSASNILQKPSRPAISTPPVASKSAQARIGRPPVEGRGRGHLLPRYWPKYTDKEVQQISGNLNLNIVPLFEKTLSASDAGRIGRLVLPKACAEAYFPPISQSEGIPLKIQDVRGREWTFQFRYWPNNNSRMYVLEGVTPCIQSMMLQAGDTVTFSRVDPGGKLIMGSRKAANAGDMQGCGLTNGTSTEDTSSSGVTENPPSINGSSCISLIPKELNGMPENLNSETNGGRIGDDPTRVKEKKRTRTIGAKNKRLLLHSEESMELRLTWEEAQDLLRPSPSVKPTIVVIEEQEIEEYDEPPVFGKRTIVTTKPSGEQERWATCDDCSKWRRLPVDALLSFKWTCIDNVWDVSRCSCSAPEESLKELENVLKVGREHKKRRTGESQAAKSQQEPCGLDALASAAVLGDTIGEPEVATTTRHPRHRAGCSCIVCIQPPSGKGRHKPTCGCTVCSTVKRRFKTLMMRRKKKQLERDVTAAEDKKKKDMELAESDKSKEEKEVNTARIDLNSDPYNKEDVEAVAVEKEESRKRAIGQCSGVVAQDASDVLGVTELEGEGKNVREEPRVSS	binds	–

The remaining lines, values ahead:

binding [1]	binding [2]	Binder
–	binds	HSL1-myc (protein, UniProt Q5CCK4 1-780) MESIKVCMNALCGAASTSGEWKKGWPMRSGDLASLCDKCGCAYEQSIFCEVFHAKESGWRECNSCDKRLHCGCIASRFMMELLENGGVTCISCAKKSGLISMNVSHESNGKDFPSFASAEHVGSVLERTNLKHLLHFQRIDPTHSSLQMKQEESLLPSSLDALRHKTERKELSAQPNLSISLGPTLMTSPFHDAAVDDRSKTNSIFQLAPRSRQLLPKPANSAPIAAGMEPSGSLVSQIHVARPPPEGRGKTQLLPRYWPRITDQELLQLSGQYPHLSNSKIIPLFEKVLSASDAGRIGRLVLPKACAEAYFPPISLPEGLPLKIQDIKGKEWVFQFRFWPNNNSRMYVLEGVTPCIQSMQLQAGDTVTFSRTEPEGKLVMGYRKATNSTATQMFKGSSEPNLNMFSNSLNPGCGDINWSKLEKSEDMAKDNLFLQSSLTSARKRVRNIGTKSKRLLIDSVDVLELKITWEEAQELLRPPQSTKPSIFTLENQDFEEYDEPPVFGKRTLFVSRQTGEQEQWVQCDACGKWRQLPVDILLPPKWSCSDNLLDPGRSSCSAPDELSPREQDTLVRQSKEFKRRRLASSNEKLNQSQDASALNSLGNAGITTTGEQGEITVAATTKHPRHRAGCSCIVCSQPPSGKGKHKPSCTCTVCEAVKRRFRTLMLRKRNKGEAGQASQQAQSQSECRDETEVESIPAVELAAGENIDLNSDPGASRVSMMRLLQAAAFPLEAYLKQKAISNTAGEQQSSDMVSTEHGSSSAAQETEKDTTNGAHDPVN
–	binds	HSI2-myc (protein, UniProt Q8W4L5 1-790) MFEVKMGSKMCMNASCGTTSTVEWKKGWPLRSGLLADLCYRCGSAYESSLFCEQFHKDQSGWRECYLCSKRLHCGCIASKVTIELMDYGGVGCSTCACCHQLNLNTRGENPGVFSRLPMKTLADRQHVNGESGGRNEGDLFSQPLVMGGDKREEFMPHRGFGKLMSPESTTTGHRLDAAGEMHESSPLQPSLNMGLAVNPFSPSFATEAVEGMKHISPSQSNMVHCSASNILQKPSRPAISTPPVASKSAQARIGRPPVEGRGRGHLLPRYWPKYTDKEVQQISGNLNLNIVPLFEKTLSASDAGRIGRLVLPKACAEAYFPPISQSEGIPLKIQDVRGREWTFQFRYWPNNNSRMYVLEGVTPCIQSMMLQAGDTVTFSRVDPGGKLIMGSRKAANAGDMQGCGLTNGTSTEDTSSSGVTENPPSINGSSCISLIPKELNGMPENLNSETNGGRIGDDPTRVKEKKRTRTIGAKNKRLLLHSEESMELRLTWEEAQDLLRPSPSVKPTIVVIEEQEIEEYDEPPVFGKRTIVTTKPSGEQERWATCDDCSKWRRLPVDALLSFKWTCIDNVWDVSRCSCSAPEESLKELENVLKVGREHKKRRTGESQAAKSQQEPCGLDALASAAVLGDTIGEPEVATTTRHPRHRAGCSCIVCIQPPSGKGRHKPTCGCTVCSTVKRRFKTLMMRRKKKQLERDVTAAEDKKKKDMELAESDKSKEEKEVNTARIDLNSDPYNKEDVEAVAVEKEESRKRAIGQCSGVVAQDASDVLGVTELEGEGKNVREEPRVSS
